Publication PMC7659708, “Genetically encoded live-cell sensor for tyrosinated microtubules” (The Journal of Cell Biology, 2020)
These are yes or no findings as the source states them, for the method shown. Where no end group is shown, it is not given here. The star is where a group is joined. Biotin = O=C1N[C@H]2[C@H](CS[C@H]2CCCCC(=O)*)N1

Target: T1, biotin-TUBA1A 440-450 (human)
T1 construct: C-terminal tail of human alpha-tubulin TUBA1A, amino acids 440-450, without the terminal tyrosine (detyrosinated); source: synthetic peptide (Thermo Fisher Scientific)
T1 peptide: Biotin-VEGEGEEEGEE
Assay: SPR; steady-state binding assay, Biacore-T200; biotinylated peptides immobilized on a streptavidin (SA) sensor chip at 100-300 response units; A1aY1 titrated from 0.031 to 200 µM; 1x HBS-P+ (10 mM Hepes, 150 mM NaCl, 0.05% surfactant P20), 30 µl/min; 1:1 binding considered, one site total fit; both purified

B1: A1aY1 binder (designed binder)
chain: MATVKFKYKGEEKQVDISKILSVGRYGKLIHFLYDLGGGKAGMGMVSEKDAPKELLQMLEKQKK
notes: A1aY1, an SSO7D mutant selected from a combinatorial yeast display library; (His6, thrombin site, A1aY1); Protein used in the SPR steady-state titrations; The results say 'without any tags'; the methods describe the stored protein as 9.3 kD, which is the size with His6 and thrombin site, and tell of thrombin cleavage only for the NMR sample; also called tyrosination sensor; source: E. coli …
In the case of B1, the binding is reported as “no binding (tested: >60 µM)”.
